{
  "source": "patent US9439976B2",
  "about": "“Compositions and methods for using cathepsin E cleavable substrates” (The Methodist Hospital System, priority 2013, dated 2016)",
  "key": {"MPanc96-FG30 cells": {"system": "MPanc96-FG30 cells", "assay": "Cellular release of 5-ALA, PpIX fluorescence imaging, parent cells with limited Cath E", "format": "cell-based, human", "conditions": "unfixed MPanc96-FG30 cells with limited Cath E expression, 0.5 μM, 1 hour at 37° C."}, "MPanc96-CTSE cells": {"system": "MPanc96-CTSE cells", "assay": "Cellular release of 5-ALA, PpIX fluorescence imaging, Cath E-high cells", "format": "cell-based, human", "conditions": "unfixed MPanc96-CTSE cells, 0.5 μM, 37° C.", "protocol": "Mpanc96-CTSE and Mpanc96-FG30 cells (1.2×10^4) were treated in 96-well plates with various concentrations (0.1, 0.5, 1, and 5 μM in 100 μL) of 5-ALA prodrug, incubated for 30 minutes at 37° C., and washed several times with PBS. Fluorescence images of the cells were acquired using an inverted epifluorescence microscope and a TRITC (tetramethyl rhodamine isothiocyanate) filter (λex=557 nm and λem=576 nm). Free 5-ALA and untreated cells were included as controls. The possible light damage done in the absence of photosensitizer was evaluated by irradiating Cath E-positive Mpanc96-CTSE cells with various doses (2.5, 5, 10, 15, and 18 J/cm^2) of light using a diode laser system (652 nm; B&W TEK, Newark, Del.). Phototoxicity of the 5-ALA prodrug was assessed by incubating Mpanc96-CTSE and Mpanc96-FG30 cells in 96-well plates with 0.1 μM 5-ALA prodrug for 30 minutes at 37° C. The cells were washed several times with PBS, the medium was replaced with growth medium, and the cells were treated with a single dose of 10 J/cm2. After PDT, the treated cells and controls were incubated overnight followed by imaging to detect changes in cell morphology."}},
  "note": "At least one peptide structure holds a part that was inferred or is arguable (an end, a ring closure or a residue). Where a SMILES comes first, the peptide text is derived from it. The star is where a group is joined. X1 = O=C(O)CCC(=O)CN*",
  "data": [
    {"smiles": "CC(C)C[C@H](NC(=O)[C@H](CO)NC(=O)[C@H](Cc1ccccc1)NC(=O)CNC(=O)[C@H](C)NC(=O)[C@H](CCC(N)=O)NC(=O)[C@@H](N)CCCNC(=N)N)C(=O)NCC(=O)CCC(=O)O", "note": "[5-ALA prodrug, H-Arg-Gln-Ala-Gly-Phe-Ser-Leu-5-ALA-OH] (H-RQAGFSL-X1)", "values": [
      {"measurement": "PpIX fluorescence signal in cells (TRITC channel)", "setting": "MPanc96-FG30 cells", "value": "failed to show comparable fluorescent signals"},
      {"measurement": "PpIX fluorescence signal in cells (TRITC channel)", "setting": "MPanc96-CTSE cells", "value": "significant PpIX fluorescence signal"}
    ]}
  ]
}
